# Results of single-concentration screens

A: 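Whole-parasite assay of Trypanosoma brucei over 72 hours; the read-out is not stated. Tested at 30 µM. The record gives no direction; compounds that gave an IC50 in retests scored well above the rest, so higher reads as stronger inhibition. Values scatter widely below zero; nearly all retest evidence comes from the higher of the two concentrations used. Size under these conditions: about 64,000 compounds, about 940 of them at 50% or above in at least one test.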
B: 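Cell assay of Leishmania donovani living inside macrophages; the read-out is not stated. Tested at 30 µM. The record gives no direction; compounds that gave an IC50 in retests scored well above the rest, so higher reads as stronger inhibition. About 69,000 compounds were tested under these conditions; 1.5% (about 1,000) showed 50% or more at least once.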

Results are given as percent effect.
The record does not define 0% and 100%; most values in the screen are far below 50% and negative numbers occur (in some assays of this library far below -100).
The compounds are a random part of those screened.
Two or more numbers in one place are separate tests of the same structure; such repeats can differ widely.
A dash means the value is not listed here; it may have been measured.

compound,A,B
Cc1ccc(C(=O)N2CCC3(CC2)COCCN(S(C)(=O)=O)C3)cc1C,-10.79,7.687
CN(C(=O)COc1ccc(-c2noc(C3CCCO3)n2)cc1)C1CC1 (stereo not shown),3.498,11.97
CCO[C@@H]1CCN(C(=O)c2cscn2)[C@@H]1Cc1cnn(C)c1,6.848,-2.934
[H][C@]12CC[C@@]3(N=C(c4ccccc4)NC3=O)[C@@]1([H])CN(S(=O)(=O)C1CC1)C2,-17.79,-22.13
C=C(C)CN1CCC(NC(=O)c2scnc2C)CC1,17.08,27.14
COc1cccc(-c2cc(NCc3nccn3C)n(C)n2)c1,-36.72,18.86
CN(C)Cc1ccnc(C2CN(CCc3ccccc3)CCO2)n1 (stereo not shown),-31.45,-27.26 & -10.41
COC(=O)[C@H]1C[C@@H](O)CCN1S(=O)(=O)c1c(C)cc(OC)c(C)c1C,-49.28,-19.95
CCC(C)(CNC(=O)c1ccon1)NC(=O)c1ccon1 (stereo not shown),-13.26,32.71
CCc1ncc2c(n1)CN(CC(=O)Nc1cc(C)on1)CC2,-28.07,-7.213
COC(=O)N1CC[C@@]2(C1)[C@H](OC)CN(c1ccccc1)S2(=O)=O,-15.44,1.279
CCc1nc(CN2CCCN(C(=O)CC(C)OC)CC2)cs1 (stereo not shown),-20.35,-2.899
Cc1noc(C)c1-c1nc(C2CCCN(C(=O)C(C)C)C2)ccc1CO (stereo not shown),-9.611,-47.97
Cc1ncnc(NCCCN2CCCCC2CO)c1C (stereo not shown),-10.63,29.61
CN(C)CCN1CCCC12CCCN(Cc1ccoc1)C2.O=C(O)C(F)(F)F.O=C(O)C(F)(F)F.O=C(O)C(F)(F)F (stereo not shown),35.47,-0.3073 & -3.526
Clc1ccc2oc(C3CCN(Cc4cccnc4)CC3)nc2c1,15.06,27.73
N#Cc1cc(C(F)(F)F)ccc1NCC1CCS(=O)(=O)CC1,-29.07,3.711
CC(NCc1ccc(-c2ccc(Cl)cc2)o1)c1nnc2n1CCC2 (stereo not shown),-4.547,-2.109
CN1CCN(S(=O)(=O)c2cccc(F)c2)c2cnccc21,1.723,2.563
CCOc1cccc(C(C)NCc2ccc(OC)c(OC)c2OC)c1 (stereo not shown),16.01,17.92
NC(=O)c1ccccc1NC(=O)CCN1CCN(c2ccccc2)CC1,4.761,13.44
CC(C)C(C)NC(=O)Nc1ccc(F)c(C(N)=O)c1 (stereo not shown),-,-0.5933
Cc1cc(-c2cnc(NC3CCCC3)nc2-c2ccoc2)on1,19.37,-12.47
Cc1cc(C)n2c(CNCCNc3ccccc3)cnc2n1,-7.608,33.72
O=C(O)C(F)(F)F.O=c1cccnn1CC1CN(Cc2ccsc2)Cc2nccn2C1 (stereo not shown),11.09,11.25
O=C(O)C(F)(F)F.[H][C@@]12CCN(Cc3cccc(F)c3)C[C@]1(C(=O)N1CCOCC1)CCO2,-35.76,4.303
COc1c(CNC(c2nccn2C)C(C)C)c(C)nn1C (stereo not shown),-13.6,23.76
CC(NCc1nnc2n1CCCC2)c1nc(Cc2ccccc2)no1 (stereo not shown),-54.43,-4.251
CN1CC(C(=O)NC2(c3cccc(F)c3)CCOCC2)CC1=O (stereo not shown),-4.208,2.878
CCCc1cc(=O)[nH]c(-c2cccc(CN3CCN4CCCC4C3)c2)n1 (stereo not shown),-2.604,23.61
CN(C)C(=O)C1CN(Cc2ccccn2)CCN(S(C)(=O)=O)C1 (stereo not shown),-1.514,-15.97
Cn1cccc1C(O)CNC(=O)c1ccc(C(F)(F)F)cc1 (stereo not shown),-15.64,-8.629
CCc1ncc(C(=O)N2CCCC(c3nccn3CCOC)C2)cn1 (stereo not shown),-30.51,-2.971
O=C(Cc1ccccn1)N1CCC2(CC1)CC(Oc1ccccn1)CO2.O=C(O)C(F)(F)F.O=C(O)C(F)(F)F (stereo not shown),23.31,17.84
O=C(CN1CCCNC1=O)Nc1ccccc1C(=O)C1CCCC1,7.758,-4.02
CCN1CCN(C(C)CNC(=O)Nc2nc3ccccc3s2)CC1 (stereo not shown),21.11,-10.98
COCC1CC2(CCN(Cc3ccoc3)CC2)CN1Cc1ccccn1 (stereo not shown),-8.592,44.45
Cc1cc(N2CCN(C(=O)c3cnn(C(C)C)c3)CC2)nc(N)n1,2.773,-1.457
CC1CC(=O)c2cc(C(=O)N3CCc4ccccc43)c(=O)[nH]c2C1 (stereo not shown),-15.77,-37.31
Cc1cnn(CCNCCCOc2ccc3c(c2)OCO3)c1,-38.57,14.76
[H][C@@]12CN(Cc3cccnc3)C[C@]1([H])C(=O)N(CC)C21CCN(C(C)=O)CC1,-20.29,4.627
[H][C@@]12CS(=O)(=O)C[C@]1([H])N(C(=O)c1snnc1C)CCN2C(C)=O,-31.36,-9.358
CCN1CCCC(c2c(-c3ccccc3)ncn2Cc2cccnc2)C1 (stereo not shown),12.25,22.36
O=C(c1ccc2c(c1)CCO2)N1CCN(c2ccc(Cl)cn2)CC1,-21.95,-12.28
COCCN1CCCC2(CCN(c3ncnc(C)c3C)C2)C1=O (stereo not shown),-55.43,46.06
c1cnn(CC2CN(Cc3ccc(-n4ccnc4)cc3)CCO2)c1 (stereo not shown),4.762,36.35
CCS(=O)(=O)N1Cc2cncn2CC(C(=O)NCC2CC2)C1 (stereo not shown),-11.75,19.34
Cc1cc(C(=O)N2CCC3(CC2)C(=O)N(C)CCN3CC2CC2)c(C)o1.O=C(O)C(F)(F)F,5.817,32.82
Cc1ccc(-c2nc(C3CCN(C(=O)c4cnn(C)c4)CC3)no2)cn1,11.51,-37.58
Cc1cc(C)n2ncc(CN3CCC(Cn4cc(CO)nn4)CC3)c2n1,-3.423,11.39
Cc1cc(C)nc(N2CCCC(C)(c3[nH]ncc3C(=O)N(C)C)C2)n1 (stereo not shown),-11.15,30.31
COc1cc(CNCC(C)O)cc(Cl)c1OCc1ccc(C)cc1.Cl (stereo not shown),97.25,1.354
CN(C(=O)CSc1ncc[nH]1)c1ccccc1,-51.88,35.37
[H][C@@]12CCN(C(=O)Cc3nc4nc(C)cc(C)n4n3)C[C@@]1(CO)CCCN2,-28.5,11.64
CN(C)C(=O)n1c(C(=O)NC(C)(C)CO)cc2c1c1ccccc1n2C,22,30.29
COc1cccc(OC)c1C(=O)N1C[C@@H](CN(C)C)[C@@H](CO)C1,-47.56,-22.82
O=C(NCC(Cc1cccc(F)c1)N1CCCC1=O)C1CCCC1 (stereo not shown),-3.046,-6.838 & 13.19
CCN1CCC(c2cncc(N(C)C)n2)CC1,-8.022,6.521

The values are deposited in ChEMBL (CHEMBL3988442, “University of Dundee, Small-Polar-MMV Screening Library” (2021)).